Laboratory results as given in publication doi:10.1101/2025.06.30.651016.
These are yes or no findings as the source states them, for the method shown. Binding seen in cells or lysates may run through a third protein. Some binding calls cover weakened binding; strength is not graded here. Tags and fused reporters may be left off the sequences shown.

Amino acid sequences for entries named in this document (tags omitted).
UniProt Q16515: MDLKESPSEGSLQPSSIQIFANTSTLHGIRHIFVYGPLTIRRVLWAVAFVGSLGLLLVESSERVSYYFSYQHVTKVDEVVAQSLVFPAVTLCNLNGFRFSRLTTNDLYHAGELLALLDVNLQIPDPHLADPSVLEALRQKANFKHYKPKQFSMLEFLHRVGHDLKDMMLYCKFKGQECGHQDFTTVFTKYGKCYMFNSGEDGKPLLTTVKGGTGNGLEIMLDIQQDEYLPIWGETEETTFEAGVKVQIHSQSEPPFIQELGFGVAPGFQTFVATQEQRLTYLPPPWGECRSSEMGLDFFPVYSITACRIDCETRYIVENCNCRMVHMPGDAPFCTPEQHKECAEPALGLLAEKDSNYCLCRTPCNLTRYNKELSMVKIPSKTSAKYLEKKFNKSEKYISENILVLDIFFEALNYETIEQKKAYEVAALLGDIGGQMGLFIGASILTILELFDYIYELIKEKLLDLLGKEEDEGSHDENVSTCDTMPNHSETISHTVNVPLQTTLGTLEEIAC

What was measured:
Test in all cases: co-IP
[1] = biological target: T1, ASIC1a C-terminally tagged with GFP followed by 1D4 tag (human) (UniProt P78348)
T1 sequence: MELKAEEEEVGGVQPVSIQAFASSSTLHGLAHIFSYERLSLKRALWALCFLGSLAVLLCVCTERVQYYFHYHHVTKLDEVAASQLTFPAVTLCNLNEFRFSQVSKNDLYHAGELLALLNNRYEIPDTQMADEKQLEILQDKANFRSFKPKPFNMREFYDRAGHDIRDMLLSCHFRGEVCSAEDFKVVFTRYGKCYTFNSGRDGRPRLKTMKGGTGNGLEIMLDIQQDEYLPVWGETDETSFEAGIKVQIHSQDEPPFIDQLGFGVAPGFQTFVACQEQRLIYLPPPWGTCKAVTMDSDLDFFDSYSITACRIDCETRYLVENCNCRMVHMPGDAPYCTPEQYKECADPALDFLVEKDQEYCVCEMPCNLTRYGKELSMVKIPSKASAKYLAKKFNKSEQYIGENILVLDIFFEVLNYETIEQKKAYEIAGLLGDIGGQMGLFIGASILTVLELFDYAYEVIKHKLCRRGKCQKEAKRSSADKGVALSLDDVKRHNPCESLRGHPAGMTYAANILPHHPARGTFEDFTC

[2] = biological target: T2, ASIC3 (UniProt Q9UHC3)
T2 sequence: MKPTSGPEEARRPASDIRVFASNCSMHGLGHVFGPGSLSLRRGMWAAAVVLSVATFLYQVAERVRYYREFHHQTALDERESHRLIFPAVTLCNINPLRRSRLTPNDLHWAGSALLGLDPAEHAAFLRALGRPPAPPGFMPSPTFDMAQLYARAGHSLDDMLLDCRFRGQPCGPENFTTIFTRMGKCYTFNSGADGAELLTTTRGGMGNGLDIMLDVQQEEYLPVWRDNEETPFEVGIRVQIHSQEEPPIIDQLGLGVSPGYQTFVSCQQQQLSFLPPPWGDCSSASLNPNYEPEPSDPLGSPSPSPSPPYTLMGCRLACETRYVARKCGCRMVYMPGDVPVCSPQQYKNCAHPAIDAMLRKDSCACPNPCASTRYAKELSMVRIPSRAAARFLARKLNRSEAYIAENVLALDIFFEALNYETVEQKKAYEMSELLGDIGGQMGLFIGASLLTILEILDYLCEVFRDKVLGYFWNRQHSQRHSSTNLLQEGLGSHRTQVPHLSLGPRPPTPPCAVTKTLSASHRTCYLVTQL

[3] = biological target: ASIC2a (UniProt Q16515)

B1: human MCT1 with N-terminal mCherry and Flag tag (protein, UniProt P53985 1-500)
chain: MPPAVGGPVGYTPPDGGWGWAVVIGAFISIGFSYAFPKSITVFFKEIEGIFHATTSEVSWISSIMLAVMYGGGPISSILVNKYGSRIVMIVGGCLSGCGLIAASFCNTVQQLYVCIGVIGGLGLAFNLNPALTMIGKYFYKRRPLANGLAMAGSPVFLCTLAPLNQVFFGIFGWRGSFLILGGLLLNCCVAGALMRPIGPKPTKAGKDKSKASLEKAGKSGVKKDLHDANTDLIGRHPKQEKRSVFQTINQFLDLTLFTHRGFLLYLSGNVIMFFGLFAPLVFLSSYGKSQHYSSEKSAFLLSILAFVDMVARPSMGLVANTKPIRPRIQYFFAASVVANGVCHMLAPLSTTYVGFCVYAGFFGFAFGWLSSVLFETLMDLVGPQRFSSAVGLVTIVECCPVLLGPPLLGRLNDMYGDYKYTYWACGVVLIISGIYLFIGMGINYRLLAKEQKANEQKKESKEEETSIDVAGKPNEVTKAAESPDQKDTDGGPKEEESPV
[1]
  binding: binds
[2]
  binding: binds
[3]
  binding: binds

B2: human MCT4 with N-terminal mCherry and Flag tag (protein, UniProt O15427 1-465)
chain: MGGAVVDEGPTGVKAPDGGWGWAVLFGCFVITGFSYAFPKAVSVFFKELIQEFGIGYSDTAWISSILLAMLYGTGPLCSVCVNRFGCRPVMLVGGLFASLGMVAASFCRSIIQVYLTTGVITGLGLALNFQPSLIMLNRYFSKRRPMANGLAAAGSPVFLCALSPLGQLLQDRYGWRGGFLILGGLLLNCCVCAALMRPLVVTAQPGSGPPRPSRRLLDLSVFRDRGFVLYAVAASVMVLGLFVPPVFVVSYAKDLGVPDTKAAFLLTILGFIDIFARPAAGFVAGLGKVRPYSVYLFSFSMFFNGLADLAGSTAGDYGGLVVFCIFFGISYGMVGALQFEVLMAIVGTHKFSSAIGLVLLMEAVAVLVGPPSGGKLLDATHVYMYVFILAGAEVLTSSLILLLGNFFCIRKKPKEPQPEVAAAEEEKLHKPPADSGVDLREVEHFLKAEPEKNGEVVHTPETSV
[1]
  binding: binds
